Results deposited as PubChem BioAssay AID652272 (Drosophila RNAi Screening Center, 2013).
Assay: 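Genes whose knock-down decreases or increases Hedgehog reporter output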 (primary screen). Cell system: Drosophila clone 8 (Cl8) cells. Reagents: long dsRNA against Drosophila genes. Detection: 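Plate reader light from a firefly reporter under a ptc promoter fragment that responds to Hedgehog, with Renilla light as transfection reference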. Direction: firefly Hh reporter signal: higher = more ptc reporter light; Renilla reference signal: higher = more Renilla control light. Hit rule: 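Called a hit if the two-replicate mean z-score lies below -2 or above +3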. Meaning of the calls: active = hit: reporter lowered or raised; inactive = not a hit.
In all, the deposit lists about 21,000 reagents; this is an unselected part of those with a known target gene and a result. Of all reagents, 503 (2.4%) are marked active. 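Raw plate light values, not normalised; calls rest on replicate z-scores that were not deposited; hits include reporter decreases as well as increases.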 Names joined by + are all predicted targets of the reagent. No sequences are given here. The record does not give: the amount of reagent, the time to read-out.

predicted target | dsRNA | firefly Hh reporter signal, replicate 1 | firefly Hh reporter signal, replicate 2 | Renilla reference signal, replicate 1 | Renilla reference signal, replicate 2 | activity call
CG6013 | DRSC15947 | 1.44e5 | 1.04e5 | 5908 | 4088 | inactive
Fib | DRSC04614 | 67937 | 57193 | 1675 | 6557 | inactive
CG31606 | DRSC01012 | 4.18e5 | 1.51e5 | 21906 | 6347 | inactive
CG34423 + Mthfs | DRSC04088 | 64361 | 53451 | 1573 | 4576 | inactive
CG18537 | DRSC06764 | 1.00e5 | 64914 | 2912 | 4400 | inactive
Mayo | DRSC14300 | 90660 | 1.45e5 | 3457 | 4104 | inactive
tal-1A + tal-2A + tal-AA + 1 more | DRSC12992 | 45339 | 2.09e5 | 9894 | 4515 | inactive
CG2209 | DRSC19843 | 78804 | 2.94e5 | 2048 | 9984 | inactive
SRPK | DRSC07090 | 73403 | 75953 | 3739 | 3239 | inactive
CG6040 | DRSC15954 | 1.02e5 | 57146 | 3994 | 2039 | inactive
CG13309 | DRSC09980 | 35829 | 43882 | 5792 | 3073 | inactive
asRNA:CR43259 + CG31089 | DRSC15934 | 6.54e5 | 1.04e5 | 32320 | 3203 | inactive
Vti1a | DRSC08563 | 1.29e5 | 54709 | 4740 | 1875 | inactive
Pa1 | DRSC19422 | 1.16e5 | 3.14e5 | 3874 | 11699 | inactive
CG9395 | DRSC03218 | 94394 | 55082 | 2213 | 4707 | inactive
Cyp12b2 | DRSC07364 | 95544 | 46392 | 2722 | 3578 | inactive
dpr11 | DRSC12561 | 49896 | 71954 | 1803 | 2002 | inactive
dpr11 | DRSC12562 | 1.03e5 | 1.38e5 | 3931 | 3945 | inactive
dpr11 | DRSC12563 | 70595 | 1.05e5 | 2599 | 3244 | inactive
CG5715 | DRSC15860 | 4.11e5 | 63728 | 21749 | 2593 | inactive
IFT52 | DRSC03271 | 1.01e5 | 55091 | 1914 | 5451 | inactive
CG14830 | DRSC08876 | 1.59e5 | 2.32e5 | 4855 | 10742 | inactive
SCCRO4 | DRSC10671 | 97898 | 90084 | 3664 | 2845 | inactive

Individual results from above.
Result of SRPK [DRSC07090] under “activity call”: inactive
Result of CG2209 [DRSC19843] under “Renilla reference signal, replicate 1”: 2048
For “activity call”, Vti1a [DRSC08563] reads inactive
